Binding data for 1 molecule are collected here from paper PMC7159925.

Protein sequences, listed by entry. Tags and fused reporters are not part of them.
UniProt Q10658: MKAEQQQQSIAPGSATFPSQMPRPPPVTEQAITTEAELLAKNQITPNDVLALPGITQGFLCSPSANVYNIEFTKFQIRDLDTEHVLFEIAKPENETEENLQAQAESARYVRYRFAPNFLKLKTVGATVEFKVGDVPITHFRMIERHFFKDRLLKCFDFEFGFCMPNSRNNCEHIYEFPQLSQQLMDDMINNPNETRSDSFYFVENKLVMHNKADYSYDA

Results are given in words; binding and its absence hold for the method and conditions named. Binding seen in cells or lysates may run through a third protein. A yes stands for co-enrichment or nearness to the bait. Other partners may have been found.

This assay has as its target UNC-119::GFP (unc-119::gfp knock-in) (C. elegans (endogenous in C. elegans)) (UniProt Q10658). The assay is described as follows: affinity purification with mass spectrometry; GFP-trap magnetic beads with lysate of unc-119::gfp knock-in C. elegans, 2 hr at 4°C; lysis buffer 25 mM Tris pH 7.5, 150 mM NaCl, 1% Triton; controls wild type (N2) and a strain expressing GFP in neurons (OH441).

B1: UNC-33 (CRMP) (protein, UniProt Q01630 1-854)
chain: MFPFLAPIRSANHVEQQGTKYYVEITFLADSPYSRAPSSTGTEKSVIPTLRNLDDLETVSNKSRSSEGVNKLGSRPNSRSSAIVKKTSVSSLPTSARSEGKSSPIPVKDAIPAPARHKNKGLEMSSAMMELFGGGGSTSPAPSKRENPADAPSDRVVSNAKLSQPGPEWFEGFEQMDMTDIELPPDPNCPAEKVLRGEKSTPDFDSDWQEAKEDVLDPQSYPKSFNPAESLPGPDIGAGVDDEEEPEAEAQEMEEPQYESKVDEKDDDDNGSSSSKKGHPSEDGDSTRNGETPTDRRNSGAIEETADGESSAQSAAEKKNSGDDGNGGGGEMSILLVKNAQIVNDDAIFVADILIEDGIIQNVAPNLEAPEGAEVLDAAGKLALPAGIDVYTQVTDSSVDDLSTGCKSAIAGGTGTIVEVVRPRGAESVVSAVKRVKNQLEKSGISCHVALSVAITDFCEQEMSELVKNEGINSFVLDGVSLTDDKLLELFEHVKRLGALIRVVPENKSIVAMLEKKMLKLGVTGPEGFPQSRPESLEADRVSGVCVLGNLASCPISIVQVSSADSLAAIEKARASGALAHAEIASAAVTADGSALFSQDLRFASAHLTDVPLRRGAPDRMIGALSTQPLVVCTSGHRPVNSATRVAAKDFAIAQKGSTGAEERMAVVWERAVRSGRIDAMRFVAVTSTNAAKMFNMYPKKGRIAVGADADLVIWDASGKRVLESSRAQSSQENSMYDGLTVHSVVTATIVGGKIAYQNGEVREAPVAGGFLRLSPNSPYLFSMVGQRDKFANVERVEREASSQQQKPQQNGHHKNSGDFDRNRTKVMESSIDFGGSAANRPRNPPGGRTTGFW
For B1, the binding entry is “binds”.
